No constants are given. Whether binding was seen depends on the method and setting. In cells and extracts the contact can be indirect. A result given as binding can be weak or reduced; the word gives no strength.
Assays:
[1] = molecular target: AGL6 fused to YFP or CFP (Arabidopsis thaliana) (UniProt P29386); test: FRET or BRET; pairs of one CFP (CyPet) and one YFP (YPet) fusion co-expressed in tobacco (N. benthamiana) leaf cells; signals in the nucleus by confocal microscopy, 440 nm excitation; FRET efficiency = FRET/CFP, mean of n > 4; steady-state scatter of pFRET against FRET efficiency
[2] = molecular target: SEP1 fused to YFP (Arabidopsis thaliana) (UniProt P29382); test: as above
[3] = molecular target: SEP1 fused to YFP (Arabidopsis thaliana) (UniProt P29382); test: FRET or BRET; competition: FRET efficiency of FYF-CFP/SEP1-YFP in tobacco cells with 0, 25, 75 and 100% of unlabeled FYL2 added; mean of n > 4

The chains behind the UniProt entries cited, without tags or fusion partners.
UniProt P29386: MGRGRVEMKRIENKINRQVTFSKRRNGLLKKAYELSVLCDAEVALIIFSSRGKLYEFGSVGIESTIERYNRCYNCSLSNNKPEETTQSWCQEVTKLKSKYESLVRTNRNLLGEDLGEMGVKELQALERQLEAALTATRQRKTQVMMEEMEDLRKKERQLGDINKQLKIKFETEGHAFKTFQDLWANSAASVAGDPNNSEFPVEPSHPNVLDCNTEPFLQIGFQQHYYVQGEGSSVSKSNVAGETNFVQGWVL
UniProt P29382: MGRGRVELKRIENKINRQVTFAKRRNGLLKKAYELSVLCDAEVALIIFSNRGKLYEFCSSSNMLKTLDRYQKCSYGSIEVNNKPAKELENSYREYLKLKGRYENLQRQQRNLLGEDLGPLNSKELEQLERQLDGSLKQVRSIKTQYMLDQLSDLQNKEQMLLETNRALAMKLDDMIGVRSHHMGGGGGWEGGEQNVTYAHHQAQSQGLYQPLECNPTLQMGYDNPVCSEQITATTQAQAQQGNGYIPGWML

| binding [1] | binding [2] | binding [3] | Substance |
| --- | --- | --- | --- |
| binds | binds |  | FYF-like 2 (FYL2/AGL72) fused to CFP (from UniProt Q9FLH5-2) |
|  |  | binds | FYL2, unlabeled (from UniProt Q9FLH5-2) |

— article PMC9256709
